The values below come from publication PMC4643306.

The chains behind the UniProt entries cited, without tags or fusion partners. Where a name states a change or a piece, a line headed by the entry shows the natural chain unless it says otherwise.
UniProt Q13107: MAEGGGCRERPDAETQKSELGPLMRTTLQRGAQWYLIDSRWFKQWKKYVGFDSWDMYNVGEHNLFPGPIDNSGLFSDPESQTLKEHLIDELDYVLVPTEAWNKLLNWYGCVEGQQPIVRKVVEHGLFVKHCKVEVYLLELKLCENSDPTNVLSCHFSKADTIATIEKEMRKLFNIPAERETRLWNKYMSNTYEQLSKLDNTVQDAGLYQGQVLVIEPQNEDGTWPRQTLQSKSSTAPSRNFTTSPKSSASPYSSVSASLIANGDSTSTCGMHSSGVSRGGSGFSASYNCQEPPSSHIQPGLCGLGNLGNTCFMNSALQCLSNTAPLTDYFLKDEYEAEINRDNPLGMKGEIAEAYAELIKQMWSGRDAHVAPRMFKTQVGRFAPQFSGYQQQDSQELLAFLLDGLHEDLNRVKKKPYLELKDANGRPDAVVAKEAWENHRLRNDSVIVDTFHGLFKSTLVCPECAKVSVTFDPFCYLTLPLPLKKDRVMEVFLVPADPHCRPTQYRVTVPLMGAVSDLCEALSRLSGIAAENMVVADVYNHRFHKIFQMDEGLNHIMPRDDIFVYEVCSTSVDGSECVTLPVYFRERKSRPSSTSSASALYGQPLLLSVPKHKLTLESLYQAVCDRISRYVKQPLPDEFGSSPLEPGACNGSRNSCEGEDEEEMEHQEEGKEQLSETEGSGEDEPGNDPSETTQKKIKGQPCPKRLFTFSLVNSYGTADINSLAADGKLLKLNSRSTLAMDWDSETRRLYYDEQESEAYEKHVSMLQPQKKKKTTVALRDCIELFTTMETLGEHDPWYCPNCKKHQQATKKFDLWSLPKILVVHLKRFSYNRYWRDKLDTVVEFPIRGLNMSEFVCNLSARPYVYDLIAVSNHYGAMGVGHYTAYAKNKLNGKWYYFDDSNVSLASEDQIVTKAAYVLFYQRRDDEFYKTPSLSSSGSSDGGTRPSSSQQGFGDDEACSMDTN
UniProt Q92878: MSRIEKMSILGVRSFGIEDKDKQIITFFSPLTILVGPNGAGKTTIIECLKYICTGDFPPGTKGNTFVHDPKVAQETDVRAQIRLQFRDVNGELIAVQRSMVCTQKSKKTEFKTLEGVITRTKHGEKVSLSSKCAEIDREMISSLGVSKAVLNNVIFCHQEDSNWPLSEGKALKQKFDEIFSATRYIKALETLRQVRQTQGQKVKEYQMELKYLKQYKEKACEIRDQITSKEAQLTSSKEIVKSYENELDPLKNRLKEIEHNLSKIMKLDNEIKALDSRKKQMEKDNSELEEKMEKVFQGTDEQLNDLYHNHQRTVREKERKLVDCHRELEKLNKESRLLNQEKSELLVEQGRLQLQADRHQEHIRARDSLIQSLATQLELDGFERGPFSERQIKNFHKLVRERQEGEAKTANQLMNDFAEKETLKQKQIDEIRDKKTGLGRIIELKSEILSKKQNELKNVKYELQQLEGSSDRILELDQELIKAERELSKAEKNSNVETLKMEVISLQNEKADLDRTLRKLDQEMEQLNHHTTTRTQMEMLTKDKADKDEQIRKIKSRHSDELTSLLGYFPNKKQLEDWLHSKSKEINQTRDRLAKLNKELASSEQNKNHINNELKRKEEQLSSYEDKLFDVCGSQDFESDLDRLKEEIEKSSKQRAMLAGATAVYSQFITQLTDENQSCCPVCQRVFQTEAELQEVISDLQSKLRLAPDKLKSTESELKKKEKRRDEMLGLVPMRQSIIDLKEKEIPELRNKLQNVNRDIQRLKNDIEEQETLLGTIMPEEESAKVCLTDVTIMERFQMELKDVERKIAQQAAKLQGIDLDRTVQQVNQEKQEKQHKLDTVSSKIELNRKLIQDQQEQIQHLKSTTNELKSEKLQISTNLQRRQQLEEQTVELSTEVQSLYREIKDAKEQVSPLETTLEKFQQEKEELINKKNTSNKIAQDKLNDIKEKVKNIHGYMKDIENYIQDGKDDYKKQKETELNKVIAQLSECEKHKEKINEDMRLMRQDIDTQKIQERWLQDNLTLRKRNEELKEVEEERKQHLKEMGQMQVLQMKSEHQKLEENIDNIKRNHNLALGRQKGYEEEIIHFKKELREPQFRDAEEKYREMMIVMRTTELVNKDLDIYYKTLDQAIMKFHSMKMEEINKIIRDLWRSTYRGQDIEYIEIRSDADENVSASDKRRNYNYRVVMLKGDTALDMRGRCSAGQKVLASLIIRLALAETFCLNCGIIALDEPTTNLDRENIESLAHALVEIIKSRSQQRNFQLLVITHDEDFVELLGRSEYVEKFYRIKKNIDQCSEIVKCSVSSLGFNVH

The target of the assay is USP4 lacking the ubiquitin-like domain 2 region (ΔUBL2) (human) (UniProt Q13107). Nature of the assay: co-IP; anti-GFP immunoprecipitation of GFP-FLAG-fused USP4 (full length from U2OS lysates; deletion mutants, cell line not stated), western blot for CtIP, RAD50 and MRE11; full length also after DNA damage induction. On the technique in general: A western blot detects proteins with antibodies after separation by electrophoresis.

These are yes or no findings as the source states them, for the method shown. In cells and extracts the contact can be indirect. Binding can be weak; no strength is given.

Consider RAD50 (from UniProt Q92878 1-1312), for which the binding result is recorded as “binds”.
